Tested on: albumin
Experiment: Phosphorescence decay in fetal bovine serum (interaction with albumin)
Type: binding
Conditions: FBS containing 1% DMSO, 37 °C, double-exponential decay
[1] = excited at 488 nm, monitored at 660 nm

**Q.** With (btq)2Ir(phen-pipe) [BTQphen] as the substance, how does the “share of component τ1 (in parentheses)” value read?
**A.** 41%

**Q.** What about the “share of component τ2 (in parentheses)” value of the same substance?
**A.** 59%

**Q.** And the “τ1, phosphorescence lifetime, first component” value [1]?
**A.** 1.65 µs

**Q.** What about the “τ2, phosphorescence lifetime, second component” value [1] of the same substance?
**A.** 4.05 µs

Source: PMC7910296, “Phosphorescent Ir(III) complexes conjugated with oligoarginine peptides serve as optical probes for in vivo microvascular imaging” (Scientific Reports, 2021)
